# Screening data, single-dose tests

Sequences of proteins named here, by UniProt entry; tags and fusion partners are left off. Residues count along the entry.
UniProt Q8IDJ8, 1-583: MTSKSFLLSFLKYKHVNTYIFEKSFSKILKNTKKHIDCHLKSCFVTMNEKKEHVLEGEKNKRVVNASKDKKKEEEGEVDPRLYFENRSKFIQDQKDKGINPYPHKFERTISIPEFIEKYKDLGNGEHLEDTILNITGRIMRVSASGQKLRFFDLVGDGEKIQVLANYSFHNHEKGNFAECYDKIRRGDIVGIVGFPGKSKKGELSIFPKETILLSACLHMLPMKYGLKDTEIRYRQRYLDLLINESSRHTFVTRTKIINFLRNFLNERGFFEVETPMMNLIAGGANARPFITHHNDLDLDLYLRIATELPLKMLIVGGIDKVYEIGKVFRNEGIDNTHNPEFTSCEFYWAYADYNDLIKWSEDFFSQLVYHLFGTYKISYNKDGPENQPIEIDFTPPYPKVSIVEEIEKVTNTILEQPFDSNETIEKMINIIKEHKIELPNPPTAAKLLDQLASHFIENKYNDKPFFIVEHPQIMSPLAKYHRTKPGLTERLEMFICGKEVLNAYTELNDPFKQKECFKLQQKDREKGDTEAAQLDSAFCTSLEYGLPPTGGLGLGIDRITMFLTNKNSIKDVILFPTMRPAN
UniProt A4I591, 1-473: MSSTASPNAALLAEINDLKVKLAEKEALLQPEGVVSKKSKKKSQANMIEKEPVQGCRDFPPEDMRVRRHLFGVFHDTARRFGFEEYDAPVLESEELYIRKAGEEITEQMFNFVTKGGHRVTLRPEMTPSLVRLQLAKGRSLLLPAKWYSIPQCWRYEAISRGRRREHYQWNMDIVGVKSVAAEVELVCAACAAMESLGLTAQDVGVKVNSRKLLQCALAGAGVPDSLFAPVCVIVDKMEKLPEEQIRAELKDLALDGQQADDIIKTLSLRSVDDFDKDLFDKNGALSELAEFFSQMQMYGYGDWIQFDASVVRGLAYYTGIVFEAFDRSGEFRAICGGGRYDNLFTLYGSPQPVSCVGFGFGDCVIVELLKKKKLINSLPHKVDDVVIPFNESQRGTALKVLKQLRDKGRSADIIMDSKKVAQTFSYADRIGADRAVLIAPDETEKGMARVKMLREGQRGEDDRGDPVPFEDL
UniProt Q4DA54, 1-478: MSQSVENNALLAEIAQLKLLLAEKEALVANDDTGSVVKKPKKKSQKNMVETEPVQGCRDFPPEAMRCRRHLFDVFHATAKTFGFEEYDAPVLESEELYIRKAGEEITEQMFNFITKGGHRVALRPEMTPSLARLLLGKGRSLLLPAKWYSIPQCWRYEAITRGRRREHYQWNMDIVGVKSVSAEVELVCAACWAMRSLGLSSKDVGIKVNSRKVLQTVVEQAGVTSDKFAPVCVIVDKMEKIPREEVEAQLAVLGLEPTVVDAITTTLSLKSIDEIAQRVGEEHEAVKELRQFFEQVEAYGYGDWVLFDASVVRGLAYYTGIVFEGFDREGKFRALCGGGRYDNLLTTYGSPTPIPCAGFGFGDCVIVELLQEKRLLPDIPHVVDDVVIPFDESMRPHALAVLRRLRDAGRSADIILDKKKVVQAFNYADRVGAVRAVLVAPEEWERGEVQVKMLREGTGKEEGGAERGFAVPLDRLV
UniProt P9WPC5, whole entry: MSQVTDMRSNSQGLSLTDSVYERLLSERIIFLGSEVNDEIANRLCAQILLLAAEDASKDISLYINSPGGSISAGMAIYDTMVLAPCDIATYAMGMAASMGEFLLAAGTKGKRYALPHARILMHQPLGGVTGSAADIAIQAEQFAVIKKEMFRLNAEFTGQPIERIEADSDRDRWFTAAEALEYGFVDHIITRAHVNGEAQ
UniProt P9WPC3, whole entry partner: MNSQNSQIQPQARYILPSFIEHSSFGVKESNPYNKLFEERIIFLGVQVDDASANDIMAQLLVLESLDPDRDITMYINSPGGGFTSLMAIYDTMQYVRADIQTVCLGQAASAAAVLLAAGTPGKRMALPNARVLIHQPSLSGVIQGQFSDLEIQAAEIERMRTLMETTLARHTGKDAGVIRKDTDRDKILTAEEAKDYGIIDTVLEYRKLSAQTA

PfKRS1: 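Lysine-tRNA ligase, Plasmodium falciparum 3D7 (UniProt Q8IDJ8). Enzyme assay of the cytosolic lysyl-tRNA synthetase in 384-well plates, read by luminescence. Concentration: 30 µM. Direction is inferred from only a few compounds that gave an IC50; most scored high, so higher reads as stronger inhibition. Of about 69,000 compounds tested this way, about 49 (0.071%) reached 50% or more in at least one test.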
LiHisRS: 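Histidine-tRNA ligase, Leishmania infantum (UniProt A4I591). Enzyme assay of histidyl-tRNA synthetase; the read-out is not stated. Concentration: 30 µM. Direction is inferred from retests: higher values go with stronger inhibition. The assay is labelled LdHisRS but filed under L. infantum. Of about 69,000 compounds tested this way, about 410 (0.6%) reached 50% or more in at least one test.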
TcHisRS: 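Histidine-tRNA ligase, Trypanosoma cruzi CL Brener (UniProt Q4DA54). Enzyme assay of histidyl-tRNA synthetase; the read-out is not stated. Concentration: 30 µM. The record gives no direction; compounds that gave an IC50 in retests scored well above the rest, so higher reads as stronger inhibition. About 69,000 compounds were tested under these conditions; 0.045% (about 31) showed 50% or more at least once.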
Leishmania in macrophages: 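Cell assay of Leishmania donovani living inside macrophages; the read-out is not stated. Compounds at 30 µM. The record gives no direction; compounds that gave an IC50 in retests scored well above the rest, so higher reads as stronger inhibition. About 69,000 compounds were tested under these conditions; 1.5% (about 1,000) showed 50% or more at least once.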
ClpP1P2: 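ClpP1P2, Mycobacterium tuberculosis (UniProt P9WPC5 and UniProt P9WPC3). Protease assay of ClpP1P2, read by the AMC dye that it sets free. Tested at 50 µM. Direction is inferred from only a few compounds that gave an IC50; most scored high, so higher reads as stronger inhibition. Most other retested compounds had strongly negative values. Of about 69,000 compounds tested this way, about 10 (0.015%) reached 50% or more in at least one test.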

Results are given as percent effect. The record does not define 0% and 100%; most values in the screen are far below 50% and negative numbers occur (in some assays of this library far below -100). Compounds were drawn at random from those tested, without regard to their results. Two or more numbers in one place are separate tests of the same structure; such repeats can differ widely.

SMILES: c1ccc(CCCN2CCCC(Nc3cnc4ccccc4n3)C2)cc1 (stereo not shown)
PfKRS1: 3.543%
LiHisRS: 18.09%
TcHisRS: 9.091%
Leishmania in macrophages: 17.95%
ClpP1P2: -56.37%

SMILES: CCn1c2c(ccc1=O)CC(NCc1cnn(C)c1)CC2 (stereo not shown)
PfKRS1: 1.663%
LiHisRS: 5.941%
TcHisRS: 0.5025%
Leishmania in macrophages: 8.213%
ClpP1P2: -7.948%

SMILES: COCCCNS(=O)(=O)c1ccc(N2CCCCS2(=O)=O)cc1
PfKRS1: 2.686%
LiHisRS: 13.48%
TcHisRS: 5.528%
Leishmania in macrophages: 28.68%
ClpP1P2: 11.44%

SMILES: COc1ccc(OCc2nc(C(=O)N3CC(O)C3)co2)cc1
PfKRS1: -1.48%
LiHisRS: 21.15%
TcHisRS: 2.5%
Leishmania in macrophages: 21.85%
ClpP1P2: -10.3%

SMILES: CN(C)Cc1nnn2c1CN(Cc1cccnc1)CCC2.O=C(O)C(F)(F)F.O=C(O)C(F)(F)F.O=C(O)C(F)(F)F
Leishmania in macrophages: -42.84%

SMILES: Cc1nc(CN2CCCC(N(C)Cc3nc(C)c(C)o3)C2)no1 (stereo not shown)
PfKRS1: 5.009%
LiHisRS: 8.264%
TcHisRS: -4.202%
Leishmania in macrophages: 17.21%
ClpP1P2: -12.59%

SMILES: O=C(Nc1ccccc1OC(F)F)C1=NN(c2ccccc2)C(=O)CN1
PfKRS1: 9.635%
LiHisRS: 1.124%
TcHisRS: 1.504%
Leishmania in macrophages: 29.66%
ClpP1P2: 8.656%

SMILES: O=C(NCC1CC1)C1CCC2(CCN(C(=O)c3cnccn3)CC2)O1 (stereo not shown)
PfKRS1: 1.155%
LiHisRS: 26.61%
TcHisRS: 6.25%
Leishmania in macrophages: 11.75%
ClpP1P2: 13.19%

SMILES: CS(=O)(=O)N1CCC(CSc2ccccc2)C1 (stereo not shown)
PfKRS1: 1.024%
LiHisRS: 17.14%
TcHisRS: 5.195%
Leishmania in macrophages: 15.81%
ClpP1P2: 2.692%

SMILES: O=C(O)C(F)(F)F.[H][C@@]12CN(Cc3ccc(F)cc3)C[C@]1([H])C(=O)N(c1ccsc1)C2
Leishmania in macrophages: 26.23%

SMILES: O=C(O)C(F)(F)F.O=C(O)C(F)(F)F.[H][C@]12CCN(S(=O)(=O)CC)CC[C@@]1([H])S(=O)(=O)CCN2Cc1cccnc1
Leishmania in macrophages: 12.67%

SMILES: O=C(NCC1SCCc2ccccc21)c1cscn1 (stereo not shown)
PfKRS1: -0.5539%
LiHisRS: 4.712%
TcHisRS: 0.5348%
Leishmania in macrophages: 25.21%
ClpP1P2: -7.327%

SMILES: CNc1nc(CS(=O)(=O)c2ccccc2)cs1
PfKRS1: 3.676%
LiHisRS: 8.036%
TcHisRS: 1.724%
Leishmania in macrophages: 7.646%
ClpP1P2: -6.761%

SMILES: CC(C)(O)c1cn(C2CCN(C(=O)CCC3CCCC3)CC2)nn1
PfKRS1: -2.691%
LiHisRS: 2.5%
TcHisRS: -6.763%
Leishmania in macrophages: -9.12%
ClpP1P2: 1.989%

SMILES: COCCNC(=O)c1cccnc1Oc1ccc(Cl)cc1
PfKRS1: 3.93%
LiHisRS: 13.86%
TcHisRS: -1.136%
Leishmania in macrophages: 25.71%
ClpP1P2: 11.95%

SMILES: CS(=O)(=O)NCc1cc(=O)n2c(n1)CN(CC1CC1)CCC2
PfKRS1: 3.892%
LiHisRS: 21.78%
TcHisRS: 4.523%
ClpP1P2: 0.6776%

SMILES: Cc1cc(CN2CC3(CCN(C(=O)C4CC4)CC3)CC2C(=O)O)oc1C (stereo not shown)
PfKRS1: -0.3579%
LiHisRS: 10.75%
TcHisRS: 5.759%
Leishmania in macrophages: 26.53%
ClpP1P2: -5.758%

SMILES: COCC1CN(Cc2ccsc2)Cc2nn(C)cc21 (stereo not shown)
PfKRS1: -1.567%
LiHisRS: -5.882%
TcHisRS: 2.732%
ClpP1P2: 8.971%

SMILES: O=C1NC[C@H]2CN(C3CCOCC3)CCN12
PfKRS1: 5.697%
LiHisRS: -8.108%
TcHisRS: 0.4975%
ClpP1P2: -1.281%

SMILES: O=C(O)C(F)(F)F.[H][C@@]12OCCC[C@]1([H])N(Cc1ccc(OC)cc1)C[C@@H]2N1CCCC1=O
Leishmania in macrophages: 1.551% & 4.253%

SMILES: c1ccc(CN2CCc3c(CNc4nccs4)n[nH]c3C2)nc1
PfKRS1: 0.6175%
LiHisRS: 15.38%
TcHisRS: 2.439%
ClpP1P2: -12.15%

The first 2 entries again:

{"smiles": "c1ccc(CCCN2CCCC(Nc3cnc4ccccc4n3)C2)cc1", "stereo": "stereo not shown", "PfKRS1": 3.543, "LiHisRS": 18.09, "TcHisRS": 9.091, "Leishmania in macrophages": 17.95, "ClpP1P2": -56.37}
{"smiles": "CCn1c2c(ccc1=O)CC(NCc1cnn(C)c1)CC2", "stereo": "stereo not shown", "PfKRS1": 1.663, "LiHisRS": 5.941, "TcHisRS": 0.5025, "Leishmania in macrophages": 8.213, "ClpP1P2": -7.948}

Measurements from “University of Dundee, Small-Polar-MMV Screening Library” (2021), ChEMBL document CHEMBL3988442.